Test results as given in PubChem BioAssay AID540276 (National Center for Advancing Translational Sciences (NCATS), 2011).
In all, about 300,000 compounds went through this assay and about 5,400 (1.8%) were called active. This list was built around the results that the source calls inconclusive (neither active nor inactive); the mix of calls is not that of the screen. The call rests on the fitted dose curve; tested in HEK293 cells. Potencies of inconclusive entries are doubtful fits and often do not repeat.

Assay: qHTS for inhibitors of binding or entry into cells for Marburg Virus
Conditions: Marburg virus pseudotyped entry inhibition, cell reporter; series mostly up to 37.8 µM
Potency means the concentration at half of the fitted maximal effect.

Row | Compound | Potency
1 | O=C1NC(c2cccnc2)C(C(=O)c2cccs2)C(O)(C(F)(F)F)N1 (centres undefined) | inconclusive: 0.282 µM [activator, partial curve, poor fit]
2 | CCN(CC)c1ccc(NC(=O)c2ccccc2F)cc1 | inconclusive: 8.91 µM [inhibitor, partial curve]
3 | Cc1ccc(CNC(=O)CSCc2nc(-c3ccc(Cl)cc3)oc2C)cc1 | inactive
4 | COc1cccc(C(=O)OCC(=O)NC2CCCc3ccccc32)c1O (centres undefined) | inconclusive: 35.5 µM [activator, single point]
5 | O=C1CNC(=O)/C1=C\N1CCN(C(c2ccccc2)c2ccccc2)CC1 | inconclusive: 35.5 µM [inhibitor, single point]
6 | S=C1SCN(Cc2cccnc2)CN1Cc1ccccc1 | inconclusive: 22.4 µM [inhibitor, single point]
7 | Cc1cc(C(=O)N2CCCC(C(=O)c3ccc(Cl)cc3C)C2)no1 (centres undefined) | inconclusive: 11.2 µM [inhibitor, single point]
8 | C(=C/c1ccnc2nc(SC/C=C/c3ccccc3)nn12)/c1ccccc1 | inactive
9 | Cc1ccc(-c2nc(C#N)c(NCc3cccc4c3OCO4)o2)cc1 | inactive
10 | CCOC(=O)c1ccc(NC(=S)N(CCCN2CCN(C)CC2)Cc2cccs2)cc1 | inconclusive: 10 µM [inhibitor, partial curve, poor fit]
11 | O=C(/C=C/c1cccs1)NCc1ccccc1 | inconclusive: 28.2 µM [activator, single point]
12 | COc1cc2c(cc1OC)-c1cc(Nc3ccccc3C)nc(=O)n1CC2 | inactive
13 | CCOC(=O)/C=C/C(=O)OCC(=O)Nc1ccc(C)cc1 | inactive
14 | S=C(NCCc1ccccc1)Nc1ccccc1N1CCOCC1 | inconclusive: 11.2 µM [inhibitor, partial curve, poor fit]
15 | O=S(=O)(c1ccc(Cl)cc1)N1c2ccccc2Oc2nc3ccccc3nc21 | inactive
16 | Cc1cc(C)c(C(N)=O)c(SCC(=O)c2cc(C)c(C)cc2C)n1 | inactive
17 | O=c1c(Cc2c(F)cccc2Cl)c(O)ccn1Cc1ccc(F)cc1 | inconclusive: 22.4 µM [inhibitor, single point]
18 | O=C(/C=C/c1ccc([N+](=O)[O-])cc1)Nc1cccnc1 | inconclusive: 29.1 µM [inhibitor, single point]
19 | CCOC(=O)Nc1cc2c(c(N)n1)N=C(c1ccccc1)CN2 | inconclusive: 0.224 µM [inhibitor, full curve, poor fit]
20 | COCCn1c(N)c(S(=O)(=O)c2cccs2)c2nc3ccccc3nc21 | inactive
21 | Cc1ccc(CN(N=Nc2nonc2N)c2nonc2N)c(C)c1 | inconclusive: 29.1 µM [inhibitor, single point]
22 | O=C(CN1CCN(CCO)CC1)Nc1ccc(Cl)cc1C(=O)c1ccccc1 | inconclusive: 32.6 µM [inhibitor, single point]
23 | COc1ccc(N2CCN(C(=O)CN3CCN(C(c4ccccc4)c4ccccc4)CC3)CC2)cc1 | inconclusive: 1 µM [inhibitor, full curve, poor fit]
24 | COCCn1c(=O)[nH]c2cc(C(=O)NCc3ccccc3)ccc2c1=O | inconclusive: 32.6 µM [inhibitor, single point]
25 | CC1CCCC(C)N1C(=O)COC(=O)Cn1cnc2c1c(=O)n(C)c(=O)n2C (centres undefined) | inconclusive: 35.5 µM [activator, partial curve, poor fit]

Row | Compound | Potency
26 | CCn1c(=O)c2cc(C(=O)NCc3ccc(F)cc3Cl)sc2c2ccccc21 | inactive
27 | COc1ccc(C(=O)Nc2ccccc2C(=O)Nc2ccccn2)cc1 | inactive
28 | CC(NC(=O)CCNS(=O)(=O)c1cccc2nonc12)c1ccccc1 (centres undefined) | inactive
29 | CCc1cccc(C)c1NC(=S)NCC(c1cccnc1)N(C)C (centres undefined) | inconclusive: 5.62 µM [inhibitor, single point]
30 | CC1Cc2ccccc2N1C(=O)COc1ccc2c(c1)OCO2 (centres undefined) | inconclusive: 7.08 µM [activator, full curve, poor fit]
31 | CCOC(=O)C1=C(COc2ccc(C)cc2)NC(=O)NC1c1cc(C)ccc1C (centres undefined) | inconclusive: 3.98 µM [activator, full curve, poor fit]
32 | CC(C)NC(=S)Nc1ccc2nc3n(c(=O)c2c1)CCCCC3 | inconclusive: 0.316 µM [inhibitor, full curve, poor fit]
33 | COc1ccc(-n2nc(C(=O)Nc3ccc4c(c3)OCO4)c3ccccc3c2=O)c(OC)c1 | inconclusive: 35.5 µM [activator, single point]
34 | Cc1cc(-c2ccccc2)nc(=O)[nH]1 | inactive
35 | COC(=O)c1c(C)n(Cc2ccc3c(c2)OCO3)c2ccc(O)cc12 | inactive
36 | Cc1cc(C)nc(N/N=C/c2ccccc2OCc2ccc(Cl)cc2)n1 | inconclusive: 6.31 µM [activator, partial curve, poor fit]
37 | O=C(Cn1c(NCCO)nc2ccccc21)Nc1ccc2c(c1)OCCCO2 | inactive
38 | O=C1CCCCN1CCc1c[nH]c2ccccc12 | inactive
39 | CCOC(=O)C(CC)Sc1ncnc2c1c(-c1ccccc1)cn2-c1ccc(OC)cc1 (centres undefined) | inconclusive: 31.6 µM [activator, single point]
40 | O=C(c1ccc(Br)cc1)c1cc2ccc(O)cc2oc1=O | inactive
41 | CCOc1cc(/C=N/NC(=O)c2ccncc2)cc(Cl)c1OS(C)(=O)=O | inconclusive: 5.01 µM [activator, single point]
42 | Cc1ccc(C(=O)N2CCN3C(=O)c4ccccc4C23c2ccccc2)cc1 (centres undefined) | inactive
43 | CC(C)(C)n1nnnc1C(c1cccs1)N1CCCC2(CCCCC2)C1 (centres undefined) | inconclusive: 6.51 µM [inhibitor, partial curve, poor fit]
44 | Cc1ncoc1C(=O)NC1CCCc2c1cnn2-c1ccc(C(C)(C)C)cc1 (centres undefined) | inconclusive: 2.82 µM [inhibitor, partial curve, poor fit]
45 | Cc1cc(C(=O)OCC(=O)NC(C)c2ccccc2)c(C)o1 (centres undefined) | inactive
46 | Cc1cc(NS(=O)(=O)c2ccc(NC(=O)/C=C/c3ccc(C)o3)cc2)nc(C)n1 | inactive
47 | O=C(O)CNC(=O)c1ccc(Oc2c(F)c(F)c(Oc3ccc(C(=O)NCC(=O)O)cc3)c(F)c2F)cc1 | inactive
48 | Cc1ccc(C)c2nc3sc(C(=O)N4CCOCC4)c(N)c3cc12 | inconclusive: 3.55 µM [inhibitor, partial curve]
49 | COc1ccccc1OCC(=O)N(Cc1nnc(-c2ccccc2Cl)o1)C1CC1 | inactive
50 | Nc1nnc(SCC(=O)OCC(=O)NC23CC4CC(CC(C4)C2)C3)s1 | inconclusive: 7.08 µM [activator, single point]

An excerpt from above in order of heavy-atom count, rising:
Row | Compound | Potency
38 | O=C1CCCCN1CCc1c[nH]c2ccccc12 | inactive
37 | O=C(Cn1c(NCCO)nc2ccccc21)Nc1ccc2c(c1)OCCCO2 | inactive
46 | Cc1cc(NS(=O)(=O)c2ccc(NC(=O)/C=C/c3ccc(C)o3)cc2)nc(C)n1 | inactive

Continuation:

Row | Compound | Potency
51 | CCN(C(=O)Cc1nc(N)n[nH]1)C1(C(=O)Nc2ccccc2)CCCCC1 | inconclusive: 11.2 µM [activator, single point]
52 | Cc1cc(C(=O)N2CCOCC2)c(C)o1 | inactive
53 | CCOC(=O)Cc1cnc(NC(=O)CSc2nc(C)c(CC)c(=O)[nH]2)s1 | inconclusive: 7.08 µM [inhibitor, full curve, poor fit]
54 | COc1ccccc1NC(=O)CN1CCCCCC1 | inactive
55 | O=C(Cc1c(F)cccc1Cl)NCC1CCCO1 (centres undefined) | inactive
56 | Clc1cccc(CSC2=NCCCN2)c1 | inconclusive: 6.31 µM [activator, single point]
57 | Cc1ccc(SCC(=O)Nc2ccccc2C(=O)O)cc1 | inconclusive: 25.1 µM [inhibitor, single point]
58 | c1ccc(-c2nnc(-c3ccco3)n2-c2ccccc2)cc1 | inconclusive: 5.17 µM [activator, full curve, poor fit]
59 | CC(C)c1ccc(NC(=S)N(C)CCc2ccccn2)cc1 | inactive
60 | Cc1cc(C(=O)OCC(=O)N2c3ccccc3NC(=O)C2(C)C)c(C)n1-c1ccccc1 | inconclusive: 10 µM [inhibitor, partial curve, poor fit]
61 | CC1=C(C(=O)Nc2cccnc2)C(c2cccnc2)n2nc(-c3cccs3)nc2N1 (centres undefined) | inactive
62 | C=CCOc1ccc(/C=C/C(=O)OCC(=O)N2CCCc3ccccc32)cc1 | inactive
63 | CC(C)CCNC(=O)CC1C(=O)N(Cc2ccccc2)C(C)c2nc3ccccc3n21 (centres undefined) | inconclusive: 1.16 µM [inhibitor, full curve, poor fit]
64 | NC(=O)c1cc2ccccc2oc1=NCc1ccccc1 | inactive
65 | COc1ccc(S(=O)(=O)N(Cc2ccccc2)c2ccccc2C(=O)N2CCOCC2)cc1 | inconclusive: 17.8 µM [inhibitor, single point]
66 | CC1CCCCC1NC(=O)Cn1[nH]c(=O)c2ccccc2c1=O (centres undefined) | inconclusive: 20 µM [activator, single point]
67 | O=Cc1cccnc1SCc1ccccc1 | inconclusive: 22.4 µM [inhibitor, single point]
68 | COc1cccc(N2C(=O)C(CC(=O)Nc3ccccc3)N(CCc3sccc3C)C2=O)c1 (centres undefined) | inconclusive: 15.8 µM [inhibitor, single point]
69 | COC(=O)c1c(-c2c(Cl)cccc2Cl)noc1C(=O)NN | inconclusive: 3.16 µM [inhibitor, single point]
70 | Cc1cccc(NC(=O)c2ccccc2OCC(=O)c2ccccc2)c1 | inconclusive: 2.06 µM [inhibitor, partial curve, poor fit]
71 | COc1ccc(OC)c(C(c2nnnn2C2CCCC2)N2CCN(c3ccccc3)CC2)c1 (centres undefined) | active: 10 µM
72 | Cc1ccc(CNC(=O)CN(C)S(=O)(=O)c2ccc3c(c2)c(=O)n(C)c(=O)n3C)cc1 | inactive
73 | COC(=O)c1c(NC(=O)COc2ccc(C)cc2Br)sc2c1CCCC2 | inactive
74 | CCCc1[nH]nc2c1C(c1ccccc1OC)C(C#N)=C(N)O2 (centres undefined) | inactive
